The test in a line: qHTS Assay for Lipid Storage Modulators in Drosophila S3 Cells.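 On cell number change: cells counted by Cell Tracker Red CMTPX staining in the red channel.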 The following applies: BODIPY lipid droplet fluorescence, 18-24 h; for cell number change: measured here: cell count max response, cells fed with added oleic acid. The method, boiled down: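 Drosophila S3 cells loaded with oleic acid (400 uM, as added) and compounds at several concentrations; lipid droplets imaged by 488-nm laser-scanning cytometry, 500–530 nm intensity and object ratio to cell channel. Percent activity normalized to 20 uM Triacsin C.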

[1] abbreviates: measured here: cell number channel AC50, cells fed with added oleic acid.
Setting [2] is: measured here: lipid fluorescence (Fed channel) AC50, cells fed with added oleic acid.

The other results are listed elsewhere or left out. Shown are side measurements of this screen, not its main read-out; they come without a call. The list favours compounds with an active or inconclusive main result. Potencies come from curve fits of mixed quality, noted in brackets.

Experimental findings from PubChem BioAssay AID2685 (National Center for Advancing Translational Sciences (NCATS), 2010) are described below.

`CCOc1ccc(NC(=O)C2CCCN(S(=O)(=O)c3cccc4nsnc34)C2)cc1` (stereo not given): the cell number change was -0.724%. Moreover, under setting [1], the half-maximal activity concentration (AC50) (usually the concentration giving half of the maximal activity seen) is 0.13 µM [rising, partial curve]. Take `Cc1ccc([N+](=O)[O-])cc1N=C(c1ccc([N+](=O)[O-])cc1)N1CCOCC1`: the cell number change was -51.4%. In addition, the concentration at half-maximal activity (AC50) under setting [1] is 23.1 µM [falling, single point]. The AC50 under setting [2] is 29.1 µM [falling, single point].

`Cc1ccc(-n2nnnc2SCC(=O)NCC2(N3CCOCC3)CCCCC2)cc1`: the cell number change is 25%. Under setting [2], the AC50 is 18.4 µM [falling, single point].

Take `CCOC(=O)CNS(=O)(=O)c1cc(-c2nnc(Nc3ccc4c(c3)OCO4)c3ccccc23)ccc1C`: the cell number change is -34%. Further, the AC50 under setting [1] is 29.1 µM [falling, single point].

For `Clc1ccc(-c2cn3nc4c(nc3n2)CCCC4)cc1`, under setting [2], the AC50 was 0.58 µM [rising, full curve].

As for `Cc1cc(Cl)ccc1OCc1nc(-c2ccncc2)no1`, the cell number change turned out to be 45.8%. The concentration at half-maximal activity (AC50) under setting [1] was 1.16 µM [rising, full curve]. For the same molecule, the AC50 under setting [2] was 4.11 µM [rising, full curve]. As to `O=C(COc1ncnc2ccccc12)Nc1ccccc1[N+](=O)[O-]`, the cell number change stood at 18.1%. Turning to `COc1cccc(C(=O)Nc2c3c(nn2-c2ccccc2C)CS(=O)C3)c1OC` (stereo not given), the AC50 is 1.16 µM [rising, full curve] under setting [1] and 1.16 µM [rising, partial curve] under setting [2]. As for `Cc1ccc(S(=O)(=O)N2CCN(C(=O)c3ccc(N4CCCCC4)c([N+](=O)[O-])c3)CC2)cc1`, the cell number change was -56.4%. The concentration at half-maximal activity (AC50) under setting [2] is 29.1 µM [falling, single point]. `CSc1nc2c(c(=O)n1C)SC(C)C2` (stereo not given): the cell number change came to 20.7%. Moreover, the AC50 under setting [2] is 32.6 µM [rising, single point]. As for `COc1ccccc1N(CN1CCCC1=O)C(=O)c1ccccc1F`, the cell number change amounted to 12.9%. Also, under setting [2], the AC50 is 3.66 µM [falling, full curve]. As for `Cc1cc2ncc(C(N)=O)cn2n1`, the cell number change was -45.5%. Also, the AC50 under setting [1] is 7.31 µM [falling, single point].

Consider `COC(=O)c1cc2c(ccn2-c2ccc(F)cc2)n1Cc1cccc(OC)c1`, for which the cell number change is 10.5%. The half-maximal activity concentration (AC50) under setting [2] was 0.0651 µM [rising, full curve, poor fit].

On to `COc1ccc(-c2c3c(=O)n(C)c(=O)n(C)c3cn2Cc2ccccn2)cc1`, for which the cell number change is -1.75%. In addition, the half-maximal activity concentration (AC50) under setting [2] is 0.651 µM [falling, full curve].

As to `Cc1ccc2c(c1)NC(c1cccs1)C1=C(CC(C)(C)CC1=O)N2` (stereo not given), the cell number change amounted to 4.86%. Take `CC(=O)Oc1ccccc1-c1nc(C)nc(N(C)C(C)=O)n1`: the cell number change is -7.89%. Besides, under setting [2], the AC50 is 6.51 µM [rising, single point]. Turning to `Cc1cc(NC(=O)c2sc(Nc3ccc(F)cc3)nc2N)no1`, the cell number change is -37%.

As to `Cc1ccc(OCC(=O)NCCN2CCCC2)cc1`, the cell number change worked out at 6.09%. The half-maximal activity concentration (AC50) under setting [2] was 29.1 µM [falling, single point]. Turning to `COC(=O)[C@H](C)NC(=O)NCc1ccco1`, the half-maximal activity concentration (AC50) is 0.58 µM [falling, single point] under setting [1] and 29.1 µM [falling, single point] under setting [2].

For the molecule `CC(=O)OC(COc1ccc(F)cc1)Cn1cnc2ccccc21` (stereo not given), the cell number change stood at 44.3%. For the same molecule, the AC50 under setting [1] is 32.6 µM [rising, single point]. Moreover, the AC50 under setting [2] is 32.6 µM [rising, single point]. Take `CC(=O)Nc1ccc(S(=O)(=O)N2CCC(Oc3ccc(-n4cnnn4)cc3)CC2)cc1`: the cell number change is -31%. Further, the concentration at half-maximal activity (AC50) under setting [1] is 0.00461 µM [falling, full curve, poor fit]. Besides, the half-maximal activity concentration (AC50) under setting [2] was 0.58 µM [rising, single point]. For the molecule `CCOc1ccccc1N1CCN(Cc2c(C)n(C)n(-c3ccccc3)c2=O)CC1`, the cell number change is -17.9%. The AC50 under setting [1] is 2.31 µM [falling, partial curve].

Consider `COc1cccc(CNC(=O)c2ccc(C)c(S(=O)(=O)N3CCCCC3)c2)c1`, for which the cell number change is -18.5%. In addition, the half-maximal activity concentration (AC50) under setting [2] is 29.1 µM [falling, partial curve].

As to `CC1=C(C(=O)N2CCCC(N3CCN(c4ccccc4C)CC3)C2)OCCO1` (stereo not given), the cell number change is -20.5%. For the same molecule, the AC50 under setting [2] was 29.1 µM [falling, single point]. Turning to `CCN=C1SC(CC(=O)NC(C)C)C(=O)N1CC` (stereo not given), the cell number change turned out to be 5.31%. The concentration at half-maximal activity (AC50) under setting [2] was 29.1 µM [falling, single point]. On to `CC(=O)[C@@]1(O)[C@H](C)CC2C3CC=C4CC(OP(=O)(O)O)CC[C@]4(C)C3CC[C@@]21C` (stereo not given in full), for which the cell number change was -22.2%. Further, under setting [1], the AC50 was 0.0058 µM [falling, full curve, poor fit]. Under setting [2], the half-maximal activity concentration (AC50) was 0.651 µM [rising, partial curve, poor fit]. Take `CC(C)NC(=O)CSc1nnc(-c2ccc(F)cc2)c2ccccc12`: the cell number change was -17.5%. The half-maximal activity concentration (AC50) under setting [2] is 2.59 µM [rising, single point]. For the molecule `COc1ccc(-c2nnc(SCC(=O)NC(C)C)n2CC2CCCO2)cc1OC` (stereo not given), the cell number change is -11.6%. For `COc1ccc(OCC(=O)Nc2ccc3c(c2)nc(CCN2CCN(C)CC2)n3C)cc1`, the cell number change was found to be 12.7%. Besides, the half-maximal activity concentration (AC50) under setting [1] was 2.59 µM [rising, single point]. Under setting [2], the half-maximal activity concentration (AC50) was 29.1 µM [rising, partial curve]. Consider `COc1ccccc1/C=N/NC(=O)c1cc2c(OC)c(OC)ccc2[nH]1`, for which the cell number change is -41.4%. Further, under setting [1], the AC50 is 32.6 µM [falling, single point]. As for `N#C/C(=C/c1ccc(F)cc1)c1nc(CCN2C(=O)c3ccccc3C2=O)cs1`, the cell number change was determined as 97.8%. Also, the AC50 under setting [1] is 1.84 µM [rising, full curve]. Besides, under setting [2], the AC50 is 1.46 µM [rising, full curve]. Turning to `CN(C)S(=O)(=O)c1cccc(NC(=O)CCc2nc3sc4c(c3c(=O)[nH]2)CCCC4)c1`, the cell number change turned out to be 3.24%. On to `CC(=O)c1c(C)n(-c2ccccc2Br)c2ccc(O)cc12`, for which the cell number change is -1.41%. In addition, the AC50 under setting [1] is 0.461 µM [falling, single point]. Regarding `CC(=O)Oc1ccc(C(=O)Nc2cc(NC(=O)c3ccc(OC(C)=O)cc3)cc(C(=O)NC(C)(C)C)c2)cc1`, the cell number change stood at 2.04%. Moreover, under setting [2], the AC50 was 3.66 µM [rising, partial curve]. With `NC(=O)c1cc(C(N)=O)nc(Cl)n1`, the cell number change came out at 7.4%. The AC50 under setting [1] is 0.231 µM [falling, full curve]. In the case of `CC(c1ccccc1)N1C(=O)OC(C)(C)C1(C)O` (stereo not given), the cell number change was 12.1%. `CCN1C(=O)c2ccccc2Sc2ccc(C(=O)NCCCN3CCCCC3)cc21`: the cell number change was 4.75%. Also, under setting [2], the half-maximal activity concentration (AC50) was 11.6 µM [rising, partial curve, poor fit]. For the molecule `COc1ccc(C(=O)NCC(C)CN(C)C)cc1` (stereo not given), the cell number change was 1.08%. The concentration at half-maximal activity (AC50) under setting [2] is 20.6 µM [falling, single point]. For the molecule `Fc1ccc(-c2nnc3sc(C4COc5ccccc5O4)nn23)cc1` (stereo not given), the cell number change is -1.35%.

With `Cc1ccc(NC(=O)COC(=O)Cn2c(C)csc2=O)cc1`, the cell number change is -4.7%.

Regarding `CCOc1ccc(C2C3=C(CCCC3=O)N(CC(=O)O)C3=C2C(=O)CCC3)cc1`, the cell number change was -30.7%. Further, under setting [1], the AC50 was 32.6 µM [falling, partial curve, poor fit].

As to `COc1ccc(-c2[nH]ncc2CN2CCC(O)(c3ccc(Cl)cc3)CC2)cc1`, the cell number change is 9.38%. `Nc1c(C(=O)N/N=C/c2ccccc2)cnn1-c1ccccc1`: the cell number change stood at 5.94%. Further, the half-maximal activity concentration (AC50) under setting [2] was 0.259 µM [rising, partial curve, poor fit]. Take `O=S(=O)(CCSc1ccc(C(F)(F)F)cn1)c1ccc(Cl)cc1`: under setting [1], the AC50 was 0.0651 µM [falling, full curve, poor fit]. Take `CC(C)c1nnc(NC(=O)CCc2ccccc2)s1`: the cell number change stood at 26.7%.

In the case of `CNC(=O)N/N=C(\N)c1ccccn1`, the cell number change was -47.7%. Further, under setting [1], the half-maximal activity concentration (AC50) was 7.31 µM [falling, partial curve, poor fit]. Also, the AC50 under setting [2] is 2.91 µM [falling, partial curve]. Consider `O=C(CCC(=O)OCC(=O)c1ccc(Cl)cc1Cl)Nc1cccc2cccnc12`, for which the cell number change is 29.2%. Consider `CS(=O)(=O)c1ccc2nc(NC(=O)C3=NN(c4ccccc4)C(=O)CC3)sc2c1`, for which the cell number change is -13.5%.

For `COc1cc(/C=N/NS(=O)(=O)c2ccc3ccccc3c2)ccc1OCCN1CCOCC1`, the cell number change was -2.08%. Besides, the half-maximal activity concentration (AC50) under setting [2] is 29.1 µM [rising, single point]. `O=C(NCc1cccnc1)c1cccn1-c1ncc(C(F)(F)F)cc1Cl`: the cell number change is -39.4%. The AC50 under setting [1] is 0.00461 µM [falling, full curve, poor fit]. Further, under setting [2], the concentration at half-maximal activity (AC50) is 20.6 µM [falling, single point]. `CC(=O)Nc1ccc(S(=O)(=O)N[C@@H](C)C(=O)N2CCN(C/C=C/c3ccccc3)CC2)cc1`: the cell number change turned out to be 8.41%. The concentration at half-maximal activity (AC50) under setting [2] was 0.00517 µM [falling, full curve, poor fit]. As for `CN(C)/C=C1\Oc2ccc3ccccc3c2C1=O`, the cell number change is -30.8%. Turning to `Cc1ccc(CCNC(=O)CN2C(=O)COc3ccc(S(=O)(=O)N4CCOCC4)cc32)cc1`, the cell number change was 11.5%. Consider `O=C(NCc1ccco1)NCC(F)(F)F`, for which the cell number change was -10.5%. Besides, the concentration at half-maximal activity (AC50) under setting [2] is 29.1 µM [rising, single point]. For `CN(C(=O)CCc1nnc(-c2ccc(-c3ccccc3)cc2)o1)C1CCOCC1`, the concentration at half-maximal activity (AC50) under setting [2] is 18.4 µM [falling, single point]. With `O=S(=O)(c1ccc(F)cc1)N1CCN(C(=S)NC2CC2)CC1`, the cell number change was -38.7%. Moreover, the AC50 under setting [1] is 0.00517 µM [falling, full curve, poor fit]. The AC50 under setting [2] is 0.461 µM [falling, full curve, poor fit]. Consider `COC(=O)C1=C(CSc2nc3ccccc3o2)NC(=O)NC1c1cc(C)ccc1C` (stereo not given), for which the cell number change came out at 6.81%. Take `Cc1cc(C)n2nc(C(=O)OCC(=O)N(C)C3CCCCC3)nc2n1`: the cell number change amounted to 11.9%. Also, the half-maximal activity concentration (AC50) under setting [2] is 5.8 µM [falling, single point].

`O=C(/C=C/Sc1ccccc1)c1ccccc1`: the AC50 by setting is: under setting [1], 5.17 µM [falling, single point]; under setting [2], 20.6 µM [falling, single point]. As for `CCOc1ccc(-n2c(Cc3cc(=O)[nH]c(=O)[nH]3)nnc2SC(C)C)cc1`, the cell number change is -10.4%. Further, the AC50 under setting [2] is 18.4 µM [falling, single point].

In the case of `Cc1ccc(S(=O)(=O)CC(=O)NCc2ccccc2)cc1`, the cell number change stood at 17.8%. Also, the AC50 under setting [2] is 29.1 µM [rising, single point]. Turning to `Nc1cc(=O)[nH]c(=O)n1Cc1ccco1`, the cell number change is -1.02%.
